# Source: paper doi:10.1101/2025.11.28.691009
# The chains behind the UniProt entries cited, without tags or fusion partners.
# UniProt Q9JIM3: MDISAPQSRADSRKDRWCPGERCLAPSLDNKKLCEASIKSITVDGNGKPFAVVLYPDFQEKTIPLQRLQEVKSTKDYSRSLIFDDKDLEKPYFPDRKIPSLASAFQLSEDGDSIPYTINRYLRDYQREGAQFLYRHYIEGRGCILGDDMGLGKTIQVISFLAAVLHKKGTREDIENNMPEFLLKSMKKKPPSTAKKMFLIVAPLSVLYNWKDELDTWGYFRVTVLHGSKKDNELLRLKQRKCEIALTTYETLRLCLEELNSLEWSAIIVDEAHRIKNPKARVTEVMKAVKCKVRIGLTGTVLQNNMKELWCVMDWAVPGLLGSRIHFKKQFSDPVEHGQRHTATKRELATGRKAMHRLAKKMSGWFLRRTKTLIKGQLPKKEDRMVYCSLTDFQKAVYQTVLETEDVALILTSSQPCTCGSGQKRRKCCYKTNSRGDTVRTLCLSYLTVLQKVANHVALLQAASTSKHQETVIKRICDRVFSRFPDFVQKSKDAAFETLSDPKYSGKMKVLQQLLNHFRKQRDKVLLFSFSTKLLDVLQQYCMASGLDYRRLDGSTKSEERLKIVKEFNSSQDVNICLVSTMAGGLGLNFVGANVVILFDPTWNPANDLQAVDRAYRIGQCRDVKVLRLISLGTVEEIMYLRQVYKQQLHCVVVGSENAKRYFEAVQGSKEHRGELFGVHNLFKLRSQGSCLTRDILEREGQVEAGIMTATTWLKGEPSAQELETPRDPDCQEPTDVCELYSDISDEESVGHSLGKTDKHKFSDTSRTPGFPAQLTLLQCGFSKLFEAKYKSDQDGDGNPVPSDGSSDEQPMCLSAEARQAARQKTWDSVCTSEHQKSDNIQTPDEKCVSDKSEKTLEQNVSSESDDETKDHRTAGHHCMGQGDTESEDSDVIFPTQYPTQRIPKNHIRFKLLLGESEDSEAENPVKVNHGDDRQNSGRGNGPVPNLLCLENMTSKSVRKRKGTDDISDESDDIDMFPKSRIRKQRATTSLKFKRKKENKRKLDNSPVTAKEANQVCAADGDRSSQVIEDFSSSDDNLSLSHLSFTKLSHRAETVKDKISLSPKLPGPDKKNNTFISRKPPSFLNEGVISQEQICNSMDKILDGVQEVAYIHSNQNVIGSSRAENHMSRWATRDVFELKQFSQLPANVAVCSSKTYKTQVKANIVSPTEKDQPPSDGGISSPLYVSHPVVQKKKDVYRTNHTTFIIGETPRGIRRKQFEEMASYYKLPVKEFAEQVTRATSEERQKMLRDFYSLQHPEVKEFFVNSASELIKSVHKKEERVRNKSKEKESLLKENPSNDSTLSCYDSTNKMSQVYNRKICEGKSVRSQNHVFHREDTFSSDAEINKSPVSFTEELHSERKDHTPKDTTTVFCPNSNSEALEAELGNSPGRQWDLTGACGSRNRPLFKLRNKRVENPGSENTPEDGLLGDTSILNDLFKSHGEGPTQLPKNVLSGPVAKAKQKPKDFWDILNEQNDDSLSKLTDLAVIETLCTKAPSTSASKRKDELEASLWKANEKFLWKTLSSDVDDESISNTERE
# Results are given in words; binding and its absence hold for the method and conditions named. In cells and extracts the contact can be indirect. A yes stands for co-enrichment or nearness to the bait. Other partners may have been found.
# B1: MRI/CYREN (endogenous) (protein, UniProt Q8BHZ5 1-157)
# chain: METLKSKTKTRVLPSWMTAPVDERKVVSVKTATRKQTAAWAQRVGAATRAPATETVYCMNEAEMVDVALGILIEGRKQEKPWEQRSLEATDKLQLSPPCSSSPGSSSEEEDSRISSLAPGLSPPRGPEASDSPCSRSPEEEKEEEDALKYVREIFFS
# Biological target: TwinStrep-HA-ERCC6L2 (endogenously tagged) (mouse (endogenous in CH12-F3)) (UniProt Q9JIM3)
# Experiment: affinity purification with mass spectrometry
binder,measurement,value
B1,binding,binds
